This assay deals with T1, RTP801 (endogenous, NGF-differentiated PC12 cells) (rat (endogenous in PC12)) (UniProt Q8VHZ9).
T1 sequence: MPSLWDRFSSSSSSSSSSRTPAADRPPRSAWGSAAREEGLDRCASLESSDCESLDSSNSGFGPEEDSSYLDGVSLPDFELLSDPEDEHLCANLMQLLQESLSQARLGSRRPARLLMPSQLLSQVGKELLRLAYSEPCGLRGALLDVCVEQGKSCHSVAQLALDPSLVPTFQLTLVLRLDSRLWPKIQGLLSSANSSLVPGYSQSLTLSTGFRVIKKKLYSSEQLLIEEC
Kind of assay: co-IP; endogenous proteins in NGF-differentiated PC12 cells; 1 μM epoxomicin for 2 hours, then the cross-linker DSP at 4°C for 2 hours before harvesting; RTP801 immunoprecipitated with anti-RTP801 antibody on protein A-agarose; washed with CHAPS buffer; blot with anti-NEDD4.

Protein sequences, listed by entry. Tags and fused reporters are not part of them.
UniProt Q62940: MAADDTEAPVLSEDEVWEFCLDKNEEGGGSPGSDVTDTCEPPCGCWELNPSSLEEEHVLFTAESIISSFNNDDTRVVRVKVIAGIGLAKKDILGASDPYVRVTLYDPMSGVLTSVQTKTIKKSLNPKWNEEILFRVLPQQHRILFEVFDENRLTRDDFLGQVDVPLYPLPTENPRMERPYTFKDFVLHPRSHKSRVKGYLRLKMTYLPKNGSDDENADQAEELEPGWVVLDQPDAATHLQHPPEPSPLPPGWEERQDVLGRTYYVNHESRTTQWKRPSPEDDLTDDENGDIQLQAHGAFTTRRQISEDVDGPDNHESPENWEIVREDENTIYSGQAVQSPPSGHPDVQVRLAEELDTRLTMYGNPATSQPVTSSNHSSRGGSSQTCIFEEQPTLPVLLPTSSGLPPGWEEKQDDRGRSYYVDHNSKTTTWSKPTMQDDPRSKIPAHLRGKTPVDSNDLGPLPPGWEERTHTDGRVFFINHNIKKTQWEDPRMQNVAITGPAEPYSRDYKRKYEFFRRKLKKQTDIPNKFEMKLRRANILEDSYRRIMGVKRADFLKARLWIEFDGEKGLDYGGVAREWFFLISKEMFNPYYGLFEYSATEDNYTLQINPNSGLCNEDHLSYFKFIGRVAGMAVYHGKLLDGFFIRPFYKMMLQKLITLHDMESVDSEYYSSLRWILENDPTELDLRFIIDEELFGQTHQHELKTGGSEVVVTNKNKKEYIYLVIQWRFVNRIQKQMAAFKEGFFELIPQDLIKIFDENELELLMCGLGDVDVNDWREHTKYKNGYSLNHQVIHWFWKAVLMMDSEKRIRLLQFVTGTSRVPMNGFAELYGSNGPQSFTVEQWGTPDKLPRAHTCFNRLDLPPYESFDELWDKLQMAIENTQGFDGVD

One substance from publication PMC5312278 can be followed below.

No constants are given. Whether binding was seen depends on the method and setting. In cells and extracts the contact can be indirect. Some results given as binding are weak or reduced against the parent protein; the word gives no strength.

Take “NEDD4 (endogenous, NGF-differentiated PC12 cells) (from UniProt Q62940 1-887) (enzyme)”: the binding result was “binds”.
